Measurements taken from paper PMC4233059.
No constants are given. Whether binding was seen depends on the method and setting. Binding seen in cells or lysates may run through a third protein. A result given as binding can be weak or reduced; the word gives no strength.

Protein sequences, listed by entry. Tags and fused reporters are not part of them. Lines headed by an entry give the natural chain unless they say otherwise; changes in a name come on top.
UniProt P40763: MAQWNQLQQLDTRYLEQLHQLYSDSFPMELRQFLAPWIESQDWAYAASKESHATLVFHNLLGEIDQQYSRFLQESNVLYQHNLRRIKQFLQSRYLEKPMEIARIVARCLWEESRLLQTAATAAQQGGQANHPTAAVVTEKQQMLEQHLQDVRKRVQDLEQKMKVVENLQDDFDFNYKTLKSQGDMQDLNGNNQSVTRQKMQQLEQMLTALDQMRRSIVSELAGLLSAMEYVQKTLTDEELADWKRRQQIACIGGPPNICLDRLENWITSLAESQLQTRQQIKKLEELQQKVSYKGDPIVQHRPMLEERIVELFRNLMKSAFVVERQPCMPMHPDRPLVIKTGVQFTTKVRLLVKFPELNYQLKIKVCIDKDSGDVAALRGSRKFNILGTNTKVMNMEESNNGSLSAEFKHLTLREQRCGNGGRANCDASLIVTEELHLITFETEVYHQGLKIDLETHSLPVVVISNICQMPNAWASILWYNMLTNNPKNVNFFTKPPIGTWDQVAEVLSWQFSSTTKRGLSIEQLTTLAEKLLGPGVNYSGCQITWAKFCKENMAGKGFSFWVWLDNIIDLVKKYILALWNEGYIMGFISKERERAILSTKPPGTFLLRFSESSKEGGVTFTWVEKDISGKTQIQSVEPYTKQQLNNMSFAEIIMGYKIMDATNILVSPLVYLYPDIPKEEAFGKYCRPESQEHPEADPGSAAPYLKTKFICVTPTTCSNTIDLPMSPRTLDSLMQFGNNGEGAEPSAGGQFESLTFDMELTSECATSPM
UniProt P42224: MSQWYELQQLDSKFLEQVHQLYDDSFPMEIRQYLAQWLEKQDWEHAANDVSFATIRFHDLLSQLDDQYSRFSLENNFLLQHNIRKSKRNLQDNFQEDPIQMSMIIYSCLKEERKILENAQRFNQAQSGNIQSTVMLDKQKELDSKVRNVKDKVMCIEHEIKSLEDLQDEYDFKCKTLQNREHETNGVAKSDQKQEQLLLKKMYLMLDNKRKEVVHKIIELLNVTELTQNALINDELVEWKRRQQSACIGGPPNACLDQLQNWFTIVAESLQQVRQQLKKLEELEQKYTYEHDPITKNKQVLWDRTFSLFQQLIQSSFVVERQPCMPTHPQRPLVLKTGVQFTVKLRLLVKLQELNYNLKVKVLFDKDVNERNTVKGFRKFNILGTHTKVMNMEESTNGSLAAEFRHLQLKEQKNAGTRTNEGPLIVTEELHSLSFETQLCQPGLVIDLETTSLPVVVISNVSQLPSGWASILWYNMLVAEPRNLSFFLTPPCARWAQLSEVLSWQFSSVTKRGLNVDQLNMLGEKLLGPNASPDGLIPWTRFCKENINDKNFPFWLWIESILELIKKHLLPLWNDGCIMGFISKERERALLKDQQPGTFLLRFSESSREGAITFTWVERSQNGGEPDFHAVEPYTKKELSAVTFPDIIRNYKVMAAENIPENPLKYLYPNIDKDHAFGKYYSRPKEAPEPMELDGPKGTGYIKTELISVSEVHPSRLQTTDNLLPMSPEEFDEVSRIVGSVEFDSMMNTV

Target: STAT3 (human (endogenous in EC1 and EC109)) (UniProt P40763)
Test: co-IP; 2 ug anti-STAT3 monoclonal antibody added to 500 ug lysate (cell lytic M), overnight at 4°C, protein G Plus/A beads, washed with cold PBS and lysis buffer, Western blot; EC1 and EC109 cells 48 hours after transfection of STAT1C or empty vector

FLAG-tagged STAT1C (constitutively active form of STAT1) (from UniProt P42224)
binding: binds
